Source: PubChem BioAssay AID588590 (National Center for Advancing Translational Sciences (NCATS), 2011)
The whole screen tested about 390,000 compounds, of which about 4,000 (1%) were called active. The inconclusive results got no clear call from the source; some entries with a clear call stand among them for comparison. Calls come from the whole dose curve; as a rule, active = well fitted inhibition curve with a large enough effect; inconclusive = small, poorly fitted or top-dose-only effect, or another doubt; inactive = no such curve, though single readings can be large or run the other way. Potencies beside an inconclusive call are fits to weak or partial responses and may not hold up.

Chains of the proteins cited; added tags and fusions are not shown. Lines headed by an entry give the natural chain unless they say otherwise; changes in a name come on top.
UniProt Q9UNA4: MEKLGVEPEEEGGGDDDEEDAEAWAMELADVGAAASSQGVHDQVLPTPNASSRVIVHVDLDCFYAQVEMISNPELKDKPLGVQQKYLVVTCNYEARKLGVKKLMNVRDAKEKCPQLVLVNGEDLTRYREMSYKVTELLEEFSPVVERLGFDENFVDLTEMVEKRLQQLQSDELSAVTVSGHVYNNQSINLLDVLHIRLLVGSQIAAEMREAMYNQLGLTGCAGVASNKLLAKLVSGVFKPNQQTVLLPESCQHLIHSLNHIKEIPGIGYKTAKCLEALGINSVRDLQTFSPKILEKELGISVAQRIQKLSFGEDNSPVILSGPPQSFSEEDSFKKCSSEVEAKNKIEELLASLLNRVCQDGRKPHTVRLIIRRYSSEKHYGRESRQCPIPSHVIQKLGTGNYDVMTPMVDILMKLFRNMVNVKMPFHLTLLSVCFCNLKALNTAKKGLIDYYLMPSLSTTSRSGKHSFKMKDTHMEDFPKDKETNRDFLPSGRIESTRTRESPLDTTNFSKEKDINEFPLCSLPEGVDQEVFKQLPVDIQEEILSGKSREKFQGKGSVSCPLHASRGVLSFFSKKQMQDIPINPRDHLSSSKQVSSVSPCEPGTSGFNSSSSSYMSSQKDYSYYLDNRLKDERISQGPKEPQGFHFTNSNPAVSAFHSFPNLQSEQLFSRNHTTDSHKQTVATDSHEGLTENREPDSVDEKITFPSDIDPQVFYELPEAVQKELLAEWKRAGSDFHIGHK

Molecular target: DNA polymerase iota (Homo sapiens) (UniProt Q9UNA4)
Assay: qHTS for Inhibitors of Polymerase Iota
Conditions: Pol iota fluorescent replication assay, 10 min; series mostly up to 115 µM; activity, negative = inhibition: at the top concentration
Outline: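 Fluorescent replication assay read twice, at 0 min and 10 min after adding 50 nM (final) substrate. Enzyme (10 nM) and compounds were first incubated 15 min at room temperature; enzyme-free buffer wells were negative controls.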
Potency is the fitted concentration of half-maximal effect.

Row | SMILES | activity, negative = inhibition | Potency
1 | CCOC(=O)c1[nH]c(C)c(CCC(=O)N2CCN(c3ccccc3)CC2)c1C | inactive: 17.9% | –
2 | CCOC(=O)c1c(C)oc2nc(C)nc(NCC3CCN(Cc4ccc(Cl)cc4)CC3)c12 | inactive: -13.7% | –
3 | CC(=O)OCC#CCSc1nnc(-c2cccc(Br)c2)o1 | – | inconclusive: 89.1 µM [inhibitor, single point]
4 | Nc1nnc(SCC(=O)Nc2ccc3c(c2)OCCO3)s1 | inactive: 0.767% | –
5 | COc1cccc2c1C(=O)c1c(O)c3c(c(O)c1C2=O)CC(O)(C(=O)CO)CC3OC1CC(N(C)C)C(O)C(C)O1 (stereo unspecified) | – | active: 39.8 µM
6 | O=C(NC1CCCC1)c1c[nH]c2ccc(S(=O)(=O)Nc3cccc(C(F)(F)F)c3)cc2c1=O | – | inconclusive: 89.1 µM [inhibitor, single point]
7 | CCC(CC)C(=O)OCC(=O)Nc1cccc(S(=O)(=O)N(C)c2ccccc2)c1 | – | inconclusive: 39.8 µM [inhibitor, partial curve, poor fit]
8 | C=C1C=C(C)n2ncc(C(=O)Nc3cccc4cnccc34)c2N1 | – | active: 79.4 µM
9 | Cc1oc2c(C)c(O)ccc2c(=O)c1-c1ccc2ccccc2n1 | – | inconclusive: 100 µM [inhibitor, single point]
10 | Cc1cc(-c2ccco2)c(C#N)c2nc3ccccc3n12 | – | inconclusive: 79.4 µM [inhibitor, partial curve, poor fit]
11 | Cc1cc(C(=O)Cn2c(CO)nc3ccccc32)c(C)n1C | – | active: 79.4 µM
12 | Cc1ccc(NC(=O)CCOc2ccccc2)c(C)c1 | – | inconclusive: 70.8 µM [inhibitor, single point]
13 | CCOC(=O)Cc1[nH]nc2c1C(c1cccc(OC)c1OC)C(C#N)=C(N)O2 (stereo unspecified) | inactive: 11.3% | –
14 | COc1ccc2nc(N3C(=O)C(O)=C(C(=O)c4ccco4)C3c3ccccc3OC)sc2c1 (stereo unspecified) | inactive: 10% | –
15 | O=C(Cn1c(=O)n(Cc2ccc3c(c2)OCO3)c(=O)c2ccccc21)Nc1cccc(Cl)c1 | inactive: 27.5% | –
16 | Cc1ccc(SCc2cn3c(C)csc3n2)cc1 | – | inconclusive: 14.1 µM [inhibitor, full curve]
17 | Cc1ccccc1-n1nc(C(=O)O)cc1-c1ccccc1 | – | inconclusive: 112 µM [inhibitor, single point]
18 | CCCCn1c(N)c(-c2nc3ccccc3o2)c2c([N+](=O)[O-])nn(C)c(=O)c21 | – | inconclusive: 14.1 µM [inhibitor, partial curve, poor fit]
19 | CC(=O)Nc1ccc(Sc2ccc([N+](=O)[O-])o2)cc1 | – | inconclusive: 12.6 µM [inhibitor, partial curve, poor fit]
20 | Cc1ccc(-c2cc(C3C4C=CCC(C)C4C(=O)N3Cc3ccccc3)ccc2F)cc1 (stereo unspecified) | – | inconclusive: 100 µM [inhibitor, partial curve, poor fit]
21 | O=c1cc(-c2ccccc2)[nH]n1-c1ccccc1 | – | inconclusive: 31.6 µM [inhibitor, partial curve, poor fit]

Among those listed so far, these contain a nitro group on carbon:
Row | SMILES | activity, negative = inhibition | Potency
18 | CCCCn1c(N)c(-c2nc3ccccc3o2)c2c([N+](=O)[O-])nn(C)c(=O)c21 | – | inconclusive: 14.1 µM [inhibitor, partial curve, poor fit]
19 | CC(=O)Nc1ccc(Sc2ccc([N+](=O)[O-])o2)cc1 | – | inconclusive: 12.6 µM [inhibitor, partial curve, poor fit]

(list continues)

Row | SMILES | activity, negative = inhibition | Potency
22 | COc1ccccc1CNC(=O)C(Cc1ccccc1)NS(=O)(=O)c1ccc2c(c1)oc(=O)n2C (stereo unspecified) | – | inconclusive: 89.1 µM [inhibitor, single point]
23 | Oc1ccc(C[C@@H]2CNCCN2CC2CCCCC2)cc1 | – | inconclusive: 31.6 µM [inhibitor, full curve]
24 | COC(=O)CN1C(=O)C2(C(C#N)=C(N)Oc3c2c(C)nn3-c2ccccc2)c2ccccc21 (stereo unspecified) | – | inconclusive: 28.2 µM [inhibitor, single point]
25 | COc1ccc(C2=CC3=C(Br)C(=O)C(C)(OC(=O)c4ccco4)C(=O)C3=CO2)cc1 (stereo unspecified) | – | active: 17.8 µM
26 | CN(C)C(=O)CSc1nnc(Cc2ccccc2)n1Cc1ccco1 | – | inconclusive: 56.2 µM [inhibitor, partial curve, poor fit]
27 | Cn1c2ccccc2c2cc(/C=N/NC(=O)c3ccc(N)cc3)ccc21 | – | inconclusive: 17.8 µM [inhibitor, partial curve]
28 | Cc1nn(-c2ccccc2)c(/N=C/c2ccc(O)cc2)c1-c1ccccc1 | – | inconclusive: 22.4 µM [inhibitor, partial curve, poor fit]
29 | Cc1cc(C)cc(C(=O)N2CCC3(CC2)NCCc2[nH]cnc23)c1 | – | inconclusive: 3.55 µM [inhibitor, full curve]
30 | COc1ccc(S(=O)(=O)N2CCN(C(=O)c3ccc([N+](=O)[O-])o3)CC2)cc1 | – | inconclusive: 50.1 µM [inhibitor, partial curve]
31 | O=C(CSCc1ccccc1)Nc1ccc(F)cc1F | – | inconclusive: 89.1 µM [inhibitor, single point]
32 | O=C(/C=C/c1ccc(Cl)cc1Cl)c1nc2ccccc2[nH]1 | – | inconclusive: 35.5 µM [inhibitor, partial curve, poor fit]
33 | COc1cccc(Cn2cccc(NC(=O)NCc3ccccc3)c2=O)c1 | inactive: 48.7% | –
34 | COc1cc(CNc2ccc(N3CCN(C(C)=O)CC3)cc2)ccc1OCc1ccccc1 | inactive: 137% | –
35 | CC(Oc1ccccc1F)C(=O)NC1CCS(=O)(=O)C1 (stereo unspecified) | – | inconclusive: 100 µM [inhibitor, single point]
36 | CC1=NN(c2ccc(C(=O)O)cc2)C(=O)/C1=C\c1ccc(OC(=O)c2cccs2)cc1 | – | inconclusive: 3.98 µM [inhibitor, full curve, poor fit]
37 | CCOc1ccc(CC(=O)Nc2c(C(=O)c3ccc(F)cc3)oc3ccccc23)cc1OCC | inactive: 9.62% | –
38 | CNC(=O)NC(=O)C(C)OC(=O)c1c2c(nc3ccccc13)/C(=C/c1cccs1)CC2 (stereo unspecified) | – | inconclusive: 79.4 µM [inhibitor, partial curve, poor fit]
39 | O=C(O)C(c1ccccc1)N1C(=O)/C(=C/c2cccs2)SC1=S (stereo unspecified) | – | inconclusive: 3.55 µM [inhibitor, full curve, poor fit]
40 | O=[N+]([O-])c1ccc(O/N=[N+](\[O-])N2CCCC2)c([N+](=O)[O-])c1 | – | inconclusive: 25.1 µM [inhibitor, partial curve]
41 | Cc1cc(C(=O)Nc2cccc3c2O[C@@H](CN(C)S(=O)(=O)c2ccccc2)[C@H](C)CN([C@@H](C)CO)C3=O)n(C)n1 | inactive: 49.2% | –
